Assay results published in article PMC6997364.
Results are given in words; binding and its absence hold for the method and conditions named. Binding seen in cells or lysates may run through a third protein. Some results given as binding are weak or reduced against the parent protein; the word gives no strength.

Amino acid sequences for entries named in this document (tags omitted). A change or cut given only in a name is not applied to a line headed by its entry.
UniProt P39743, whole entry: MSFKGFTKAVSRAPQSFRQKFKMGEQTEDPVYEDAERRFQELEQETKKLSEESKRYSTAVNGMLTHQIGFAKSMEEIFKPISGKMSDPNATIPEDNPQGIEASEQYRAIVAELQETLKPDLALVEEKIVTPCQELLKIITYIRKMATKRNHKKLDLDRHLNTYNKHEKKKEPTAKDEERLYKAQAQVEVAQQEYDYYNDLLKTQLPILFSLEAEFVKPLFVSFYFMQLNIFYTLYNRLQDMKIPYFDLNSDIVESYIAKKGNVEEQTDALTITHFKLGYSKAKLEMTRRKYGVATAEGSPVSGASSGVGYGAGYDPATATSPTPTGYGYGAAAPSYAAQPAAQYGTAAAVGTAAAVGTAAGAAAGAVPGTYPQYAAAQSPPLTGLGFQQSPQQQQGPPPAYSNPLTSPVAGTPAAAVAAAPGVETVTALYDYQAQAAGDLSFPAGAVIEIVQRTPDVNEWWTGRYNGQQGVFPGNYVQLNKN

Target: VSV-Rvs167 (S. cerevisiae) (UniProt P39743)
Assay: co-IP; total extracts of log-phase yeast cells co-expressing the tagged proteins (rvs167Δrvs161Δ, rvs167Δgvp36Δ, rvs161Δgvp36Δ, rvs167Δ, rvs167Δrvs161Δgvp36Δ or diploid cells); lysis buffer 20 mM Tris-HCl pH 7.5, 100 mM NaCl, 1 mM EDTA, 0.5% Triton X-100; anti-Myc, anti-HA, anti-GFP or anti-VSV antibody and protein G-agarose, 4 °C; washes up to 300 mM NaCl

Question: Which binding does the source give for “GFP-Rvs167 P473L (from UniProt P39743 1-482)” here?
Answer: binds
